Data as given in PubChem BioAssay AID504808 (Drosophila RNAi Screening Center, 2011)
Aim: 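Chromatin factors that keep E2F targets switched off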 (primary screen). Cells: Drosophila S2 cells. Reagent: long dsRNA against Drosophila genes. Read-out: 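Dual luciferase plate measurements; E2F-specific signal taken as firefly over Renilla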. Scale: E2F firefly: higher = more E2F reporter activity; Renilla normaliser: higher = more normaliser reporter signal. Rule for the call: 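a knock-down counted as active when the firefly/Renilla E2F signal rose above 50%, a threshold chosen arbitrarily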.
In all, the deposit lists about 21,000 reagents; this is a random part of those that have a named target and a result. In the full data, 18 (0.084%) were called active. 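Raw counts without plate normalisation, one of two replicates; the ratio scores behind the calls were not deposited.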 Reagents against one gene are numbered here. Names joined by + are all predicted targets of the reagent. Not stated in the record: the amount of reagent, the time to read-out.

gene	reagent	E2F firefly, rep 1	Renilla normaliser, rep 1	Call
CG13955	1	1.44e5	4990	inactive
CG12728	1	8119	688	inactive
CG14151	1	1.23e5	6222	inactive
CG7126	1	1.33e5	7531	inactive
CG42496 + Ppcdc	1	83667	3471	inactive
CG33493	1	1.21e5	6622	inactive
CG42843 (retired record)	1	1.40e5	6125	inactive
CG42843 (retired record)	2	1.52e5	5259	inactive
CG42843 (retired record)	3	1.59e5	5798	inactive
Ino80 (INO80 complex subunit)	1	1.18e5	6557	inactive
Ino80 (INO80 complex subunit)	2	1.33e5	6807	inactive
Ino80 (INO80 complex subunit)	3	1.35e5	6417	inactive
CG14286	1	1.38e5	7252	inactive
Chrac-16 (Chromatin accessibility complex 16kD protein)	1	97935	6448	inactive
Keap1	1	62285	2944	inactive
smog	1	1.22e5	4935	inactive
smog	2	1.41e5	4877	inactive
Dyro (Dpt-YFP repressor by overexpression)	1	1.08e5	6256	inactive
Prtl99C (Protamine-like 99C)	1	1.24e5	6841	inactive
CG43901	1	1.16e5	5257	inactive
CG43901	2	64330	3561	inactive
CG32260	1	1.14e5	4429	inactive
Aldh-III (Aldehyde dehydrogenase type III)	1	88845	118	inactive
LManII (Lysosomal alpha-mannosidase II)	1	73879	3102	inactive
Ids (Iduronate 2-sulfatase)	1	1.02e5	4575	inactive
Dna2 (DNA replication helicase/nuclease 2)	1	8100	692	inactive
Obp59a (Odorant-binding protein 59a)	1	97758	4365	inactive
CG9921	1	49553	3698	inactive
CG7544	1	50171	3662	inactive
dao (down and out)	1	99942	4131	inactive
CG15353	1	1.67e5	6388	inactive
mRpL20 (mitochondrial ribosomal protein L20)	1	1.16e5	7262	inactive
Atg1 (Autophagy-related 1)	1	82673	3721	inactive
Atg1 (Autophagy-related 1)	2	1.53e5	7820	inactive
Pdcd4 (Programmed cell death 4)	1	1.90e5	9426	inactive
CG6000	1	1.16e5	5613	inactive
CG13728	1	1.59e5	8424	inactive
Tm1 (Tropomyosin 1)	1	82625	2643	inactive
Tm1 (Tropomyosin 1)	2	84413	4729	inactive
Tm1 (Tropomyosin 1)	3	65980	3730	inactive
CG33310	1	1.04e5	4656	inactive
CG17304 (retired record)	1	71429	4778	inactive
Arp53D (Actin-related protein 53D)	1	1.48e5	4743	inactive
snoRNA:Me28S-C3227a + snoRNA:Me18S-A1061 + snoRNA:Me28S-C3227b + 7 more	1	1.26e5	4400	inactive
CG14695	1	1.35e5	6106	inactive
Galt (Galactose-1-phosphate uridylyltransferase)	1	66391	3334	inactive
Pgm2a (Phosphoglucomutase 2a)	1	2618	165	inactive
pain (painless)	1	92716	3456	inactive
NELF-B	1	10771	732	inactive
Chs2 (Chitin synthase 2)	1	1.39e5	7117	inactive
Kyat (Kynurenine aminotransferase)	1	1.26e5	6283	inactive
rad (retired record)	1	1.46e5	6297	inactive
ND-75 (NADH dehydrogenase (ubiquinone) 75 kDa subunit)	1	1.14e5	4985	inactive
in (inturned)	1	1.33e5	6682	inactive
Map205 (Microtubule-associated protein 205)	1	1831	984	inactive
ValRS-m (Valyl-tRNA synthetase, mitochondrial)	1	95234	3899	inactive
CG5768	1	65225	3489	inactive
Tango1 (Transport and Golgi organization 1)	1	96505	3803	inactive
Pisd (Phosphatidylserine decarboxylase)	1	77007	4061	inactive
Eig71Eg (Ecdysone-induced gene 71Eg)	1	1.65e5	8084	inactive
CG9029	1	1.44e5	4730	inactive
eIF3e (eukaryotic translation initiation factor 3 subunit e)	1	1.15e5	8032	inactive
CG33552	1	1.37e5	4860	inactive
sol (small optic lobes)	1	1.30e5	6484	inactive
CG10324	1	1.02e5	5325	inactive
CG40341 (retired record)	1	1.27e5	4704	inactive
CG40341 (retired record)	2	1.21e5	4532	inactive
Rnf146 (Ring finger protein 146)	1	1.43e5	7150	inactive
CG4676	1	90076	3978	inactive
CG15343	1	1.12e5	5433	inactive
CG6908	1	1.36e5	7154	inactive
Upf1 (Upf1 RNA helicase)	1	6936	784	inactive
CG31462 (retired record)	1	1.54e5	7337	inactive
CG13494	1	1.05e5	4505	inactive
Dnali1 (Dynein axonemal light intermediate chain 1)	1	78404	4065	inactive
SmydA-1 (SET and MYND domain containing, arthropod-specific, member 1)	1	2665	194	inactive
Oseg4 (Outer segment 4)	1	75627	3911	inactive
Ir48c (Ionotropic receptor 48c)	1	88575	4057	inactive
GstT4 (Glutathione S transferase T4)	1	7883	844	inactive
unpg (unplugged)	1	1.56e5	4711	inactive
CG3568	1	1.02e5	5502	inactive
CG12818	1	1.45e5	5851	inactive
TpnC41C (Troponin C at 41C)	1	1.26e5	5401	inactive
CG12078	1	1.06e5	4631	inactive
ppk8 (pickpocket 8)	1	82584	2191	inactive
ZnT35C (Zinc transporter 35C)	1	1.07e5	4302	inactive
CG11663	1	59120	3630	inactive
CG8323	1	97361	4064	inactive
Usp1 (Ubiquitin specific protease 1)	1	2165	948	inactive
disco-r (disco-related)	1	1.53e5	6734	inactive
disco-r (disco-related)	2	1.64e5	6278	inactive
Ugt49B1 (UDP-glycosyltransferase family 49 member B1)	1	1.03e5	4715	inactive
par-6	1	1.44e5	5011	inactive
hiw (highwire)	1	1.16e5	6689	inactive
hiw (highwire)	2	1.31e5	6656	inactive
dx (deltex)	1	97571	4721	inactive
Paics (PAICS bifunctional enzyme)	1	6906	856	inactive
CG13722	1	90280	3734	inactive
CG12470	1	1.25e5	5761	inactive
CG7362	1	1.13e5	6328	inactive
Cp7Fc (Chorion protein c at 7F)	1	1.08e5	5914	inactive
CG12640	1	1.33e5	6126	inactive
CARPA (Carbonic anhydrase-related protein A)	1	97321	4768	inactive
ppk10 (pickpocket 10)	1	91753	6516	inactive
CYTB (retired record)	1	1.34e5	4891	inactive
CG14434	1	43130	3596	inactive
peg (pegasus)	1	1.51e5	7036	inactive

Quoted from the listing (11 entries):
gene	reagent	E2F firefly, rep 1	Renilla normaliser, rep 1	Call
snoRNA:Me28S-C3227a + snoRNA:Me18S-A1061 + snoRNA:Me28S-C3227b + 7 more	1	1.26e5	4400	inactive
CG14695	1	1.35e5	6106	inactive
Galt (Galactose-1-phosphate uridylyltransferase)	1	66391	3334	inactive
Pgm2a (Phosphoglucomutase 2a)	1	2618	165	inactive
pain (painless)	1	92716	3456	inactive
NELF-B	1	10771	732	inactive
Chs2 (Chitin synthase 2)	1	1.39e5	7117	inactive
Kyat (Kynurenine aminotransferase)	1	1.26e5	6283	inactive
rad (retired record)	1	1.46e5	6297	inactive
ND-75 (NADH dehydrogenase (ubiquinone) 75 kDa subunit)	1	1.14e5	4985	inactive
in (inturned)	1	1.33e5	6682	inactive
